From PubChem BioAssay AID248 (DTP/NCI, 2004) come the findings set out here.

The assay has as its system L1210 leukemia ip in BDF1 mice, survival T/C. Kind of assay: NCI In Vivo Anticancer Drug Screen. Data for tumor model L1210 Leukemia (intraperitoneal) in B6D2F1 (BDF1) mice. To be noted: T/C endpoint: mean survival time, higher T/C = longer survival.
Where [1] appears, read: dose: 4.0 mg/kg/injection, schedule: Q01DX Z (ip), vehicle: saline.

The list does not hold the whole screen: its compounds were picked by chemical class. Other doses and runs of a compound may be missing. T/C: endpoint of the treated group in % of that of the vehicle group. For survival time, the PubChem record calls one and a half times the control and up active, and a quarter to a half above the control has no call in these data; cut-offs in other NCI protocols can differ. Some entries show no survivor count and are marked so; the dose need not have been tolerated. Schedule codes are those of the source, read here as Q, the interval in days (D) or hours (H), X, the number of doses. Marks such as (2×) give the number of equal values in this list. Some entries hold several experiments; the values are given in rising order. Some schedules carry Z or #; the key to these is not given.

For the molecule `ClCCN1C(c2ccccc2)C1c1ccccc1` (stereo not given), the T/C (dose: 100.0 mg/kg/injection, schedule: Q04DX003 (ip), vehicle: Klucel (hydroxypropylcellulose) (HPC)) was 96 % of control [survivor count not shown] and the T/C (dose: 200.0 mg/kg/injection, schedule: Q04DX003 (ip), vehicle: Klucel (hydroxypropylcellulose) (HPC)) was 97 % of control [survivor count not shown].

Regarding `Oc1cc(O)cc(N(CCCl)CCCl)c1`, the T/C reads like this: (dose: 25.0 mg/kg/injection, schedule: Q01DX009 (ip), vehicle: water) 104 % of control [survivor count not shown]; (dose: 50.0 mg/kg/injection, schedule: Q01DX009 (ip), vehicle: water) 110 % of control [survivor count not shown]; (dose: 100.0 mg/kg/injection, schedule: Q01DX009 (ip), vehicle: water) 114 % of control [survivor count not shown]; (dose: 200.0 mg/kg/injection, schedule: Q01DX009 (ip), vehicle: water) 106 % of control [survivor count not shown].

In the case of `CCOC(=O)c1ccc(N(CCCl)CCCl)cc1`, the T/C reads like this: (dose: 100.0 mg/kg/injection, schedule: Q01DX001 (ip), vehicle: carboxymethylcellulose (CMC)) 103 % of control [survivor count not shown]; (dose: 200.0 mg/kg/injection, schedule: Q01DX001 (ip), vehicle: carboxymethylcellulose (CMC)) 102 % of control [survivor count not shown]; (dose: 400.0 mg/kg/injection, schedule: Q01DX001 (ip), vehicle: carboxymethylcellulose (CMC)) 105 % of control [survivor count not shown].

As for `ClCCN(CCCl)c1ccccc1`, the T/C runs as follows: (dose: 0.5 mg/kg/injection, schedule: Q01DX009 (ip), vehicle: saline) 102 % of control [survivor count not shown]; (dose: 1.0 mg/kg/injection, schedule: Q01DX009 (ip), vehicle: saline) 105 % of control [survivor count not shown]; (dose: 1.0 mg/kg/injection, schedule: Q01DX015 (ip), vehicle: other) 96 % of control [survivor count not shown]; (dose: 2.0 mg/kg/injection, schedule: Q01DX009 (ip), vehicle: saline) 96 % of control [survivor count not shown]; (dose: 2.0 mg/kg/injection, schedule: Q01DX015 (ip), vehicle: other) 102 % of control [survivor count not shown]; (dose: 4.0 mg/kg/injection, schedule: Q01DX009 (ip), vehicle: saline) 120 % of control [survivor count not shown]. Also, the T/C by setting is: (dose: 4.0 mg/kg/injection, schedule: Q01DX015 (ip), vehicle: other) 95 % of control [survivor count not shown]; under setting [1], 91 % of control [survivor count not shown]; (dose: 8.0 mg/kg/injection, schedule: Q01DX009 (ip), vehicle: saline) 108 % of control [survivor count not shown]; (dose: 8.0 mg/kg/injection, schedule: Q01DX015 (ip), vehicle: other) 101 % of control [survivor count not shown]; (dose: 16.0 mg/kg/injection, schedule: Q01DX015 (ip), vehicle: other) 106 % of control [survivor count not shown]; (dose: 32.0 mg/kg/injection, schedule: Q01DX015 (ip), vehicle: other) 108 % of control [survivor count not shown]. Further, the T/C (dose: 40.0 mg/kg/injection, schedule: Q01DX009 (ip), vehicle: saline with Tween-80) is 150 % of control [survivor count not shown]; the T/C (dose: 44.0 mg/kg/injection, schedule: Q01DX015 (ip), vehicle: other) was 103 % of control [survivor count not shown]; the T/C (dose: 50.0 mg/kg/injection, schedule: Q01DX001 (ip), vehicle: other) was 118 % of control [survivor count not shown]; the T/C (dose: 60.0 mg/kg/injection, schedule: Q01DX009 (ip), vehicle: saline with Tween-80) is 93 % of control [survivor count not shown]; the T/C (dose: 100.0 mg/kg/injection, schedule: Q01DX001 (ip), vehicle: other) was 153 % of control [survivor count not shown]; the T/C (dose: 200.0 mg/kg/injection, schedule: Q01DX001 (ip), vehicle: other) was 168 % of control [survivor count not shown].

As for `O=C(CCN(CCCl)CCCl)c1cccc([N+](=O)[O-])c1`, the T/C runs as follows: (dose: 5.0 mg/kg/injection, schedule: Q01DX015 (ip), vehicle: saline) 96 % of control [survivor count not shown]; (dose: 6.25 mg/kg/injection, schedule: Q01DX009 (ip), vehicle: carboxymethylcellulose (CMC)) 108 % of control [survivor count not shown]; (dose: 8.0 mg/kg/injection, schedule: Q01DX015 (ip), vehicle: saline) 116 % of control [survivor count not shown]; (dose: 12.0 mg/kg/injection, schedule: Q01DX015 (ip), vehicle: saline) 125 % of control [survivor count not shown]; (dose: 12.5 mg/kg/injection, schedule: Q01DX009 (ip), vehicle: carboxymethylcellulose (CMC)) 111 % of control [survivor count not shown]; (dose: 18.0 mg/kg/injection, schedule: Q01DX015 (ip), vehicle: saline) 93 % of control [survivor count not shown]. Further, the T/C is, setting by setting: (dose: 25.0 mg/kg/injection, schedule: Q01DX009 (ip), vehicle: carboxymethylcellulose (CMC)) 116 % of control [survivor count not shown]; (dose: 50.0 mg/kg/injection, schedule: Q01DX001 (ip), vehicle: saline) 135 % of control [survivor count not shown].

For the molecule `O=C(O)CN(CCCl)CCCl`, the T/C reads like this: (dose: 0.13 mg/kg/injection, schedule: Q01DX Z (ip), vehicle: saline) 105 % of control [survivor count not shown]; (dose: 0.25 mg/kg/injection, schedule: Q01DX Z (ip), vehicle: saline) 105 % of control [survivor count not shown]; (dose: 0.5 mg/kg/injection, schedule: Q01DX Z (ip), vehicle: saline) 105 % of control [survivor count not shown]; (dose: 0.63 mg/kg/injection, schedule: Q01DX009 (ip), vehicle: saline) 117 % of control [survivor count not shown] (2×); (dose: 1.0 mg/kg/injection, schedule: Q01DX Z (ip), vehicle: saline) 109 [survivor count not shown] and 126 % of control [survivor count not shown]; (dose: 1.25 mg/kg/injection, schedule: Q01DX009 (ip), vehicle: saline) 131 [survivor count not shown] and 140 % of control [survivor count not shown]. Also, the T/C (dose: 1.25 mg/kg/injection, schedule: Q01DX010 (ip), vehicle: saline) was 138 % of control [survivor count not shown]; the T/C (dose: 2.0 mg/kg/injection, schedule: Q01DX Z (ip), vehicle: saline) is 121 % of control [survivor count not shown]; the T/C (dose: 2.5 mg/kg/injection, schedule: Q01DX009 (ip), vehicle: saline) was 136 [survivor count not shown] and 139 % of control [survivor count not shown]; the T/C (dose: 2.5 mg/kg/injection, schedule: Q01DX010 (ip), vehicle: saline) is 143 % of control [survivor count not shown]; the T/C (dose: 3.13 mg/kg/injection, schedule: Q01DX010 (ip), vehicle: saline) is 130 % of control [survivor count not shown]; the T/C under setting [1] was 122 % of control [survivor count not shown]. For the same molecule, the T/C was 137 [survivor count not shown] and 185 % of control [survivor count not shown] (dose: 5.0 mg/kg/injection, schedule: Q01DX009 (ip), vehicle: saline); 105 % of control [survivor count not shown] (dose: 6.25 mg/kg/injection, schedule: Q01DX010 (ip), vehicle: saline); 93 % of control [survivor count not shown] (dose: 8.0 mg/kg/injection, schedule: Q01DX Z (ip), vehicle: saline).
